Measurements published in PMC8568140, “Assembly of infectious Kaposi’s sarcoma-associated herpesvirus progeny requires formation of a pORF19 pentamer” (PLoS Biology, 2021).
Results are given in words; binding and its absence hold for the method and conditions named.

B1: KSHV pORF19 carboxyl-terminal domain (pORF19_(KCTD)) (domain or fragment)
chain: ASHRNFTVAIVPGDPHFSVDRDLRGELMPTLYMNQNQWLPSFGPWFISLTDNAMQRRVFPKELKGTVNFQNSTSLKLISHTLTTVASTTADFFADARHLTDTQAALCLVNAYFCQKTSRQLPATPDDLLADLPQKLDLLITQLKQESGPGDFSFTYSNPQERASLAPLNKESRYPTAFFQRHKLHAMMAKAGLFPHNKGTGAPGTAPAMDLVFAITSAMFGSDIPPFSAYQWNLRAGIVALEVFILAYGLLEFGQVARGHPNRRLNLVSLLGPKFQPGALPDPNAPMLKRGQLFSFISEHYIIPTLQANPNAPVSFIFPGIILAALEARSTVSHKQPGPFVNLTGSRFNEIFEILNQQLTFRDPLALLQARTALRLATEEGLDVLLSHPSPPTLLQEIIKSQFGGGDDYDRAYFMVLGCLPVVLAVV
notes: The His tag was removed with carboxypeptidase after a first SEC; Two of the three crystal forms (P21, P6322) were of a selenomethionine derivative; also called wt pORF19_(KCTD); KSHV pORF19 CTD; source: E. coli Rosetta (DE3), purified (HisTrap, SEC); not shown: His tag, C-terminal, cleaved

Legend:
[1] = molecular target: HCMV pUL77 carboxyl-terminal domain (pUL77CTD) (human cytomegalovirus (HCMV)) (UniProt P16726); test: crystal structure; sitting drop, 18°C, 0.08 M Na-cacodylate pH 6.5, 16% PEG 8000, 20% glycerol; P4122, 1.9 Å; one molecule in the asymmetric unit; both purified
[2] = molecular target: HCMV pUL77 carboxyl-terminal domain (pUL77CTD) (human cytomegalovirus (HCMV)) (UniProt P16726); test: SEC; Superdex 200 Increase 10/300 GL, 10 mM Tris pH 7.5, 1 M NaCl (high salt); oligomeric state estimated from the elution volume against a MW standard; both purified
[3] = molecular target: KSHV pORF19 carboxyl-terminal domain (pORF19_(KCTD)) (Kaposi's sarcoma-associated herpesvirus (KSHV)) (UniProt Q2HRB3); test: condition: only in SEC buffer (10 mM Tris pH 7.5, 50 mM NaCl); AUC; sedimentation velocity, 40,000 rpm, 20°C, SEC buffer (10 mM Tris pH 7.5, 50 mM NaCl); c(s) analysis; both purified
[4] = molecular target: KSHV pORF19 carboxyl-terminal domain (pORF19_(KCTD)) (Kaposi's sarcoma-associated herpesvirus (KSHV)) (UniProt Q2HRB3); test: condition: only in low salt SEC buffer (10 mM Tris pH 7.5, 50 mM NaCl); SEC; Superdex 200 Increase 10/300 GL, 10 mM Tris pH 7.5, 50 mM NaCl (low salt); oligomeric state estimated from the elution volume against a MW standard; both purified

| Molecule | binding [1] | binding [2] | binding [3] | binding [4] |
| --- | --- | --- | --- | --- |
| HCMV pUL77 carboxyl-terminal domain (pUL77CTD) (from UniProt P16726 180-642) (domain or fragment) | no binding | no binding |  |  |
| B1 |  |  | no binding | no binding |
